Results on 4 substances are retold here after article PMC10112893.

Amino acid sequences for entries named in this document (tags omitted).
UniProt Q9SYP1: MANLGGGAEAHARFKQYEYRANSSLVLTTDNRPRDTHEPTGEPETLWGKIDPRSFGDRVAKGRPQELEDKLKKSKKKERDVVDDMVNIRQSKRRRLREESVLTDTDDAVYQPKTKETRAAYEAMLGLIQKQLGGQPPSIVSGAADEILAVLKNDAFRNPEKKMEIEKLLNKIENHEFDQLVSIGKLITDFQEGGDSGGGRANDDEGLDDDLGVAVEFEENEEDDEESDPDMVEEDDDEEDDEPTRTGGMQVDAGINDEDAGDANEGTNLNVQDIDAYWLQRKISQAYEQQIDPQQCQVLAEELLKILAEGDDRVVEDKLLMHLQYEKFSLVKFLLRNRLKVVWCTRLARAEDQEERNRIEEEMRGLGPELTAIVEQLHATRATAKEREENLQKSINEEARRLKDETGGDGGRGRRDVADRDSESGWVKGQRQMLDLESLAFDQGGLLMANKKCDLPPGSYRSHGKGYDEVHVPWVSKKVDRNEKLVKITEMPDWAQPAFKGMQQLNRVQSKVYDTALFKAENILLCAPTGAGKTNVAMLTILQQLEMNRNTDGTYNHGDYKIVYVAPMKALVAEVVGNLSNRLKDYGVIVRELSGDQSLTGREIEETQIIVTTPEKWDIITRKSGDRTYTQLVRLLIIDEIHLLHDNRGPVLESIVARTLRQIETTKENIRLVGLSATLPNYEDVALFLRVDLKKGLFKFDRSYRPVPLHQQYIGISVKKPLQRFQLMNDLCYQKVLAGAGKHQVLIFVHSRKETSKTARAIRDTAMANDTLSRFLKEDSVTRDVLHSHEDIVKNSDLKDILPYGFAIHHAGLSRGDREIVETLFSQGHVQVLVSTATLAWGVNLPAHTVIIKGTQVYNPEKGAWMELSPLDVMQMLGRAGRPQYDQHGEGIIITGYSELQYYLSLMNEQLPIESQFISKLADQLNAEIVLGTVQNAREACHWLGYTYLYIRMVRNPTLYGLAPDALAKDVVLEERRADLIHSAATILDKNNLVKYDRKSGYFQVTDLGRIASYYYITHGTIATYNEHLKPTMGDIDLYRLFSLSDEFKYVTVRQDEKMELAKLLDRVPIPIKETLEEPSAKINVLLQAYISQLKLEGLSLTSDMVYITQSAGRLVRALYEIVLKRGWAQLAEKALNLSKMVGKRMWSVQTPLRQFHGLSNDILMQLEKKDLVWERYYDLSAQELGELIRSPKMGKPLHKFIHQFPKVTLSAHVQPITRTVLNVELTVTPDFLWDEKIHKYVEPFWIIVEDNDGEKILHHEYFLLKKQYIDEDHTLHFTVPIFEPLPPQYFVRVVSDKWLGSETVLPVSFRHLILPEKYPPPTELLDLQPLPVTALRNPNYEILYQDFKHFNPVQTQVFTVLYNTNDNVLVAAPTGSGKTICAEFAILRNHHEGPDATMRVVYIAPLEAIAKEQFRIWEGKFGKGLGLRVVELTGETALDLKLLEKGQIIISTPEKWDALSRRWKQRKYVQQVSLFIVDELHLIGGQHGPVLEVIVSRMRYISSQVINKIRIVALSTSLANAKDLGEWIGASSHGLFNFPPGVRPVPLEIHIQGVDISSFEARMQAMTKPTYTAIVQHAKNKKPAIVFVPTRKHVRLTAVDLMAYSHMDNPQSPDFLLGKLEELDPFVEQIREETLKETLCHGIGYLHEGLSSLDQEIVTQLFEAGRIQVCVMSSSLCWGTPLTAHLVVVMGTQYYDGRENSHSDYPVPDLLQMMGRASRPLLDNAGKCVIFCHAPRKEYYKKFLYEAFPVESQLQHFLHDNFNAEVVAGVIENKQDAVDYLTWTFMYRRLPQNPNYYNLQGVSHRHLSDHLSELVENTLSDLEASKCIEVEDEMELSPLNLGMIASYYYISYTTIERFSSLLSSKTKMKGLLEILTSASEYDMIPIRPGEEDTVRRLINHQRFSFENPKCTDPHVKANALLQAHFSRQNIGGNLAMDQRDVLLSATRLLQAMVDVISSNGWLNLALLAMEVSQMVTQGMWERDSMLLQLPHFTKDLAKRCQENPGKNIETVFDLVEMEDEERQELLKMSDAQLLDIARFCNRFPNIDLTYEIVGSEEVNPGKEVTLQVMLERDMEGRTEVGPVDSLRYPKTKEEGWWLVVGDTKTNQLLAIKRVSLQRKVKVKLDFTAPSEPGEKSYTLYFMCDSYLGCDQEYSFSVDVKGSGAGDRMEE
UniProt Q9SSD2: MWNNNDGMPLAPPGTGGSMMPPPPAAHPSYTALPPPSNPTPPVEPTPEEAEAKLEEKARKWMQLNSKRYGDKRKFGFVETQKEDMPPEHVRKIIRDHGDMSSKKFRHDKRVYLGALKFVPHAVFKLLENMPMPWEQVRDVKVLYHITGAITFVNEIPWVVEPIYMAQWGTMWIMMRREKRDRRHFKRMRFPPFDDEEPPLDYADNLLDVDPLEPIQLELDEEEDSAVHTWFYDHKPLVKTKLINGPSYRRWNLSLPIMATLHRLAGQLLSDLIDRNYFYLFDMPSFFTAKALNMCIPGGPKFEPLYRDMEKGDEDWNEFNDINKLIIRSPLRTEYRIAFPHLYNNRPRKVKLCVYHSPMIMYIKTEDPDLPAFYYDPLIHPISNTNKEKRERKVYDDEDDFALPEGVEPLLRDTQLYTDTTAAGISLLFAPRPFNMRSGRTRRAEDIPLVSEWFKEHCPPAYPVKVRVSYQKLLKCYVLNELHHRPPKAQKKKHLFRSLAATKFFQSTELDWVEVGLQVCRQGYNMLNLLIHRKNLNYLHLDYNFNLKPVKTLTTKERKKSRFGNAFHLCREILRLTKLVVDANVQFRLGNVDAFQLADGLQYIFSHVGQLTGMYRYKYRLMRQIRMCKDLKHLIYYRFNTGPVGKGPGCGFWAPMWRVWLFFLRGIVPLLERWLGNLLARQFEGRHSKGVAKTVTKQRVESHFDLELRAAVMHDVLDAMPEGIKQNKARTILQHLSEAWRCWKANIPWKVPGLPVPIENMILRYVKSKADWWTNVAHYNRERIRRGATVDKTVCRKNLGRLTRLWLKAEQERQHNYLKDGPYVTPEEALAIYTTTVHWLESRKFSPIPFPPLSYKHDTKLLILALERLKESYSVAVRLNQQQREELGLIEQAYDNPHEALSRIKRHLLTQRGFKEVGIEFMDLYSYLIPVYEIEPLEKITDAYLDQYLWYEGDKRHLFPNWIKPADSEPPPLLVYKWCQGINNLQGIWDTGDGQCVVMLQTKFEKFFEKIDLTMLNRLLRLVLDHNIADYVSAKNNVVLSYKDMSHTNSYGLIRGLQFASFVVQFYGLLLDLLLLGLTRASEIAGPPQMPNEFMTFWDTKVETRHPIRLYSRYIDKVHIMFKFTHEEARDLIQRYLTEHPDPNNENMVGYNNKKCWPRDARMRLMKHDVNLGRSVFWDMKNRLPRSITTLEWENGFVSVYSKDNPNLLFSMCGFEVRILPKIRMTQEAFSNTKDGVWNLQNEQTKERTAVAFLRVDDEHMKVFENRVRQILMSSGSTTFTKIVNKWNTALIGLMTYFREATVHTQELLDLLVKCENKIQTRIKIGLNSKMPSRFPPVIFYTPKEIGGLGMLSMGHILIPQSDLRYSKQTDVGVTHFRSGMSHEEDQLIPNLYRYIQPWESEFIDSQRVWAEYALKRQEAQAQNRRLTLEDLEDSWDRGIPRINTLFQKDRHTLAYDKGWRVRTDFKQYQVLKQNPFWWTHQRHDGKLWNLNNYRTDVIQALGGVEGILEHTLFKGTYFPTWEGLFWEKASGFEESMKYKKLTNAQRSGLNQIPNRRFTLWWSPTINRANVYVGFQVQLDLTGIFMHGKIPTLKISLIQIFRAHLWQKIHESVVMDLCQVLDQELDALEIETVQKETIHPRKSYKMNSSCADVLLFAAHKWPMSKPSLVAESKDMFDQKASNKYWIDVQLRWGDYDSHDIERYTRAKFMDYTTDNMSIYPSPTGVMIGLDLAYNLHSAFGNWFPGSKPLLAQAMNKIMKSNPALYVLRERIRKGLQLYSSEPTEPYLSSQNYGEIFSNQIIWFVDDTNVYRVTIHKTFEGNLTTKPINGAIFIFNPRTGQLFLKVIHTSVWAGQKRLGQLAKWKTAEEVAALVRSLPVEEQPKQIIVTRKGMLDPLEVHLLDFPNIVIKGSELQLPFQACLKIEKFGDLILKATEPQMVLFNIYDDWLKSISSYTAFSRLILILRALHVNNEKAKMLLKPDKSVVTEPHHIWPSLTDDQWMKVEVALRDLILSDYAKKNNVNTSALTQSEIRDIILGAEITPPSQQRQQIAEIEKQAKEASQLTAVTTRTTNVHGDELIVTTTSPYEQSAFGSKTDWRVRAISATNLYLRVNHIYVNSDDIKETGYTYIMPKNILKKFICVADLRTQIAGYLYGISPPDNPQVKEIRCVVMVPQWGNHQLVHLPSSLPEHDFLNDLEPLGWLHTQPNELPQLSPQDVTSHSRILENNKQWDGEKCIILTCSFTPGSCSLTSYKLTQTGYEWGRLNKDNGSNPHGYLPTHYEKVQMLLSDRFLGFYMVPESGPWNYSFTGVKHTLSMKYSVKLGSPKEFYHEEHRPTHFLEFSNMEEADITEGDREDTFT
UniProt Q8S307: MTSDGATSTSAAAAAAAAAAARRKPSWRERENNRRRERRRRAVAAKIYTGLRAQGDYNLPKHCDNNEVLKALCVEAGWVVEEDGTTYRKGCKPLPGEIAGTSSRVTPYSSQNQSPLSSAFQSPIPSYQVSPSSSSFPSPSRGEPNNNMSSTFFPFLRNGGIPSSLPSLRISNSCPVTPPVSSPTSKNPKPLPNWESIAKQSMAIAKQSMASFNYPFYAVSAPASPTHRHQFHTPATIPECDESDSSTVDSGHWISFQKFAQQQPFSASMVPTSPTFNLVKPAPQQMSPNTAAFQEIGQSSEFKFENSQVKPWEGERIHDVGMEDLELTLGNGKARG

Experiment [1] addresses T1, MERISTEM-… (MDF), BiFC fusion (Arabidopsis) (UniProt Q9LFE0).
T1 sequence: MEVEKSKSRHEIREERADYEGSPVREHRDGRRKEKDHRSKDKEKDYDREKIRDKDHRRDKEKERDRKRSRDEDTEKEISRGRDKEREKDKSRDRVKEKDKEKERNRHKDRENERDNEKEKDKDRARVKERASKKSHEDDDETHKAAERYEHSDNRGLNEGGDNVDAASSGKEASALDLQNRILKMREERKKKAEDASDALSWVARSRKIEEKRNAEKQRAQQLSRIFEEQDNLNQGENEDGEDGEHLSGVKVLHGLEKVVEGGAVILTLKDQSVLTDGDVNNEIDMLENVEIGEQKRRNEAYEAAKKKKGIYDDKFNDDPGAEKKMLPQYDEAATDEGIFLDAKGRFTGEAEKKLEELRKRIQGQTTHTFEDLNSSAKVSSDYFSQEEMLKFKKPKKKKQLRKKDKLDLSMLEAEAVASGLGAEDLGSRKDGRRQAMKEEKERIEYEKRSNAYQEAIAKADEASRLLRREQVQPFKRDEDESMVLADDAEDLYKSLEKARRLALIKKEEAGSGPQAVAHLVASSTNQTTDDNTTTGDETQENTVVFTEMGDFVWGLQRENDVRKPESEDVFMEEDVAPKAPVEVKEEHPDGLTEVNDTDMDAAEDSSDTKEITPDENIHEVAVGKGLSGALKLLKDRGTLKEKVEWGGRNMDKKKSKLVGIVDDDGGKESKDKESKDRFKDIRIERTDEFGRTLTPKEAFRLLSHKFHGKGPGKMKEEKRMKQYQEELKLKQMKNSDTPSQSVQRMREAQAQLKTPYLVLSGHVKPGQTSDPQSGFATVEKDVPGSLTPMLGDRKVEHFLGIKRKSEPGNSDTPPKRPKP
The experiment is described as follows: split reporter; BiFC with split YFP (pYFN43 + pYFC43 + p19, 1:1:1) by agroinfiltration of Nicotiana benthamiana leaves; fluorescence of leaf epidermis imaged after 3 days.

Experiment [2] concerns the target T2, MERISTEM-… (MDF), yeast two-hybrid fusion (Arabidopsis) (UniProt Q9LFE0).
T2 sequence: T1 sequence
The experiment is described as follows: two-hybrid; Clontech Matchmaker GAL4 system 3; pGBKT7 and pGADT7 constructs in AH109 and Y187, mated, both directions; diploids spotted on -WLA, -WLH with 2.5 mM 3AT and -WLAH with 2.5 mM 3AT; 5-7 days at 30°C.

Results are given in words; binding and its absence hold for the method and conditions named. For some of these results: Binding seen in cells or lysates may run through a third protein. Some entries that bind do so weakly or less than the wild type. Sequences can lack the tags named with a protein.

On to “BRR2A, BiFC fusion (from UniProt Q9SYP1 1-2171)”, for which the binding result in experiment [1] is “binds”. In the case of “PRP8A, BiFC fusion (from UniProt Q9SSD2 1-2359)”, the binding result in experiment [1] is listed as “no binding”.

Consider “PRP8A, yeast two-hybrid fusion (from UniProt Q9SSD2 1-2359)”, for which, in experiment [2], the binding result is “no binding”. As for “BZR1, BiFC fusion (pYFN43BZR1) (from UniProt Q8S307 1-336)”, the binding entry in experiment [1] was “binds”.
